# From the supplement of paper PMC8728848
# Some of the results follow.
# B1: GS7807Q-bfa-507-19-507 (Bacteroides fragilis) (protein)
# chain: ASCNKFDDLNTNPDAATKVTAPMLATKLILNITQQGSAKNFVYHSMLSKQIAWSENASDEQYNLFGRTDFDGYTILTNCQKMVDAANEGDKDSYAALAKFMKAYKLFYKSLEVGDIPYSDALKGEEGVQKPKYDTQKEVMRQVLEDLEEAYTLFSSGSDFDGDPIFGGDTENWKKTVVAFELKVLTHLCKKDTDADLKVKERFARLVSSGSLMTSNADNFQLVYSNKAGQLYPFYYTQNKHSDYLMMSSVIIDNLKKFNDYRMFYYASPAKAQTDKGIKDSEWDAYLSIDPSDSYSNISVLYGKGEFCLANLRYTRVPEGEPLMRLSYAEQNFILAEGAVRGWISEDASTYYKKGIEASMNFIADNTPDKEEYTHGRTITQEYIQEYLAQPVIQLSGDKEKDLEMILLQRYLASFLQHPYDAYYDYRRTGYPVLPINPSTNLNTEKNKIPTRWMYPEAEFSYNPDNANEAVQRQYNGSDDVNKLMWILQ
# Tests used:
# Experiment in all cases: glycan array binding signal (z-score within array); higher = stronger binding
# Conditions in all cases: glycan notation: IUPAC condensed, linker removed
# [1] = target: Neu5Ac(a2-3)Gal(b1-4)GlcNAc(b1-6)GalNAc
# Outline: (§1)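 The Consortium for Functional Glycomics database supplied 3228 glycan arrays, of which those lacking an available protein sequence were dropped. The binding signal, a within-array Z-score, was averaged across arrays of the same protein sequence and across linkers. Negative scores can be read as non-binding.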
# [2] = target: Neu5Ac(a2-3)Gal(b1-4)GlcNAc(b1-6)[Gal(b1-3)]GalNAc
# Outline: as §1
# [3] = target: Neu5Ac(a2-3)Gal(b1-4)GlcNAc(b1-6)[Neu5Ac(a2-3)Gal(b1-3)]GalNAc
# Outline: as §1
# [4] = target: Neu5Ac(a2-3)Gal(b1-4)GlcNAc6S
# Outline: as §1
# [5] = target: Neu5Ac(a2-3)Gal(b1-4)[Fuc(a1-3)]GlcNAc
# Outline: as §1
# [6] = target: Neu5Ac(a2-3)Gal(b1-4)[Fuc(a1-3)]GlcNAc(b1-2)Man
# Outline: as §1
# [7] = target: Neu5Ac(a2-3)Gal(b1-4)[Fuc(a1-3)]GlcNAc(b1-3)Gal
# Outline: as §1
# [8] = target: Neu5Ac(a2-3)Gal(b1-4)[Fuc(a1-3)]GlcNAc(b1-3)Gal(b1-4)GlcNAc
# Outline: as §1
# [9] = target: Neu5Ac(a2-3)Gal(b1-4)[Fuc(a1-3)]GlcNAc(b1-3)Gal(b1-4)[Fuc(a1-3)]GlcNAc(b1-3)Gal(b1-4)[Fuc(a1-3)]GlcNAc
# Outline: as §1
# [10] = target: Neu5Ac(a2-3)Gal(b1-4)[Fuc(a1-3)]GlcNAc(b1-3)GalNAc
# Outline: as §1
# [11] = target: Neu5Ac(a2-3)Gal(b1-4)[Fuc(a1-3)]GlcNAc(b1-6)[Gal(b1-3)]GalNAc
# Outline: as §1
# [12] = target: Neu5Ac(a2-3)Gal(b1-4)[Fuc(a1-3)]GlcNAc(b1-6)[Neu5Ac(a2-3)Gal(b1-3)]GalNAc
# Outline: as §1
# [13] = target: Neu5Ac(a2-3)Gal(b1-4)[Fuc(a1-3)]GlcNAc6S
# Outline: as §1
# [14] = target: Neu5Ac(a2-3)Gal6S(b1-4)GlcNAc
# Outline: as §1
# [15] = target: Neu5Ac(a2-3)Gal6S(b1-4)[Fuc(a1-3)]GlcNAc
# Outline: as §1
# Neu5Ac(a2-3)GalNAc = target: Neu5Ac(a2-3)GalNAc
# Outline: as §1
# [16] = target: Neu5Ac(a2-3)GalNAc(b1-4)GlcNAc
# Outline: as §1
# [17] = target: Neu5Ac(a2-3)[GalNAc(b1-4)]Gal(b1-4)Glc
# Outline: as §1
# [18] = target: Neu5Ac(a2-3)[GalNAc(b1-4)]Gal(b1-4)GlcNAc
# Outline: as §1
# [19] = target: Neu5Ac(a2-3)[GalNAc(b1-4)]Gal(b1-4)GlcNAc(b1-3)GalNAc
# Outline: as §1
# [20] = target: Neu5Ac(a2-3)[Neu5Ac(a2-6)]GalNAc
# Outline: as §1
# Neu5Ac(a2-6)Gal = target: Neu5Ac(a2-6)Gal
# Outline: as §1
# [21] = target: Neu5Ac(a2-6)Gal(b1-3)GlcNAc(b1-3)[Gal(b1-4)GlcNAc(b1-6)]Gal(b1-4)Glc
# Outline: as §1
# Neu5Ac(a2-6)Gal(b1-4)Glc = target: Neu5Ac(a2-6)Gal(b1-4)Glc
# Outline: as §1
# [22] = target: Neu5Ac(a2-6)Gal(b1-4)GlcNAc
# Outline: as §1
# [23] = target: Neu5Ac(a2-6)Gal(b1-4)GlcNAc(b1-2)Man
# Outline: as §1
# [24] = target: Neu5Ac(a2-6)Gal(b1-4)GlcNAc(b1-2)Man(a1-3)Man(b1-4)GlcNAc(b1-4)GlcNAc
# Outline: as §1
# [25] = target: Neu5Ac(a2-6)Gal(b1-4)GlcNAc(b1-2)Man(a1-3)[Gal(b1-4)GlcNAc(b1-2)Man(a1-6)]Man(b1-4)GlcNAc(b1-4)GlcNAc
# Outline: as §1
# [26] = target: Neu5Ac(a2-6)Gal(b1-4)GlcNAc(b1-2)Man(a1-3)[GlcNAc(b1-2)Man(a1-6)]Man(b1-4)GlcNAc(b1-4)GlcNAc
# Outline: as §1
# [27] = target: Neu5Ac(a2-6)Gal(b1-4)GlcNAc(b1-2)Man(a1-3)[GlcNAc(b1-4)][Neu5Ac(a2-6)Gal(b1-4)GlcNAc(b1-2)Man(a1-6)]Man(b1-4)GlcNAc(b1-4)GlcNAc
# Outline: as §1
# [28] = target: Neu5Ac(a2-6)Gal(b1-4)GlcNAc(b1-2)Man(a1-3)[Man(a1-6)]Man(b1-4)GlcNAc(b1-4)GlcNAc
# Outline: as §1
binder,measurement,setting,value
B1,glycan array binding signal (z-score),[1],-0.432
same,glycan array binding signal (z-score),[2],-0.644
same,glycan array binding signal (z-score),[3],0.149
same,glycan array binding signal (z-score),[4],-0.528
same,glycan array binding signal (z-score),[5],-0.529
same,glycan array binding signal (z-score),[6],-0.41
same,glycan array binding signal (z-score),[7],-0.844
same,glycan array binding signal (z-score),[8],-0.425
same,glycan array binding signal (z-score),[9],0.079
same,glycan array binding signal (z-score),[10],0.207
same,glycan array binding signal (z-score),[11],-0.076
same,glycan array binding signal (z-score),[12],2.04
same,glycan array binding signal (z-score),[13],-1.18
same,glycan array binding signal (z-score),[14],1.46
same,glycan array binding signal (z-score),[15],0.054
same,glycan array binding signal (z-score),Neu5Ac(a2-3)GalNAc,0.488
same,glycan array binding signal (z-score),[16],0.47
same,glycan array binding signal (z-score),[17],0.995
same,glycan array binding signal (z-score),[18],-0.569
same,glycan array binding signal (z-score),[19],1.36
same,glycan array binding signal (z-score),[20],-0.831
same,glycan array binding signal (z-score),Neu5Ac(a2-6)Gal,-0.94
same,glycan array binding signal (z-score),[21],-0.029
same,glycan array binding signal (z-score),Neu5Ac(a2-6)Gal(b1-4)Glc,0.414
same,glycan array binding signal (z-score),[22],-0.024
same,glycan array binding signal (z-score),[23],-0.547
same,glycan array binding signal (z-score),[24],-0.09
same,glycan array binding signal (z-score),[25],0.062
same,glycan array binding signal (z-score),[26],-0.637
same,glycan array binding signal (z-score),[27],-0.488
same,glycan array binding signal (z-score),[28],-0.517

# Given tab-delimited: entries from further up
binder	measurement	setting	value
B1	glycan array binding signal (z-score)	[7]	-0.844
same	glycan array binding signal (z-score)	[17]	0.995
